Source: PMC10714399, “Open Source Antibiotics: Simple Diarylimidazoles Are Potent against Methicillin-Resistant Staphylococcus aureus” (ACS Infectious Diseases, 2023)

System: Candida albicans ATCC 90028
Experiment: CO-ADD antifungal assay, C. albicans
Type: cell-based
Conditions: ATCC90028
Protocol: Hit Confirmation of active compounds by whole cell growth inhibition assays was conducted as an 8-point dose response to determine the Minimum Inhibitory Concentration (MIC), in duplicate (n=2). The inhibition of growth is measured against those microorganisms that […]
Included in the Hit Confirmation were 5 bacteria: Escherichia coli, Klebsiella pneumoniae, Acinetobacter baumannii, Pseudomonas aeruginosa and Staphylococcus aureus, and 2 fungi Candida albicans and Cryptococcus neoformans.
In addition to determining MIC, active compounds were counter screened for cytotoxicity against a human embryonic kidney cell line, HEK293, by determining their CC50 value. The compounds were also screened for haemolysis of human red blood cells.
Assay Parameters Bacteria Fungi HEK293 Haemolysis […]
Duplicate (n=2) Duplicate (n=2) Duplicate (n=2) Duplicate (n=2)
QC Control MIC: Control MIC: Control CC50: Control HC10:
Non-Binding Non-Binding TC, 384-well Polypropylene […]
Fungi strains were cultured for 3 days on Yeast Extract-Peptone Dextrose (YPD) agar at 30 °C. A yeast suspension of 1 x 10^6 to 5 x 10^6 CFU/mL (as determined by OD530) was prepared from five colonies. […]
In both cases, the percentage of growth inhibition was calculated for each well, using the negative control (media only) and positive control (fungi without inhibitors) on the same plate. […]
Reading Plates - Haemolysis Clear 384w Corning 3680 […]

**Q.** OC(Cn1cncn1)(Cn1cncn1)c1ccc(F)cc1F [Fluconazole] was tested. Which MIC did it give?
**A.** The MIC was 0.125 µg/mL.
